This is one part of the list.
Key:
Experiment in all cases: glycan array binding signal (z-score within array); higher = stronger binding
Settings in all cases: glycan notation: IUPAC condensed, linker removed
[1] = biological target: Neu5Ac(a2-3)Gal(b1-3)GalNAc(b1-4)[Neu5Ac(a2-3)]Gal(b1-4)Glc
Procedure, shortened: (§1)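 Glycan array data were curated from 3228 arrays in the Consortium for Functional Glycomics database and kept only where the protein sequence was available. Glycan names were converted to IUPAC-condensed notation, and columns mapping to the same glycan were averaged. The binding signal is a within-array Z-score, averaged across arrays of the same protein sequence at different concentrations or buffers and across linkers. Negative Z-scores can be read as non-binding.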

[2] = biological target: Neu5Ac(a2-3)Gal(b1-3)GalNAc(b1-4)[Neu5Ac(a2-8)Neu5Ac(a2-3)]Gal(b1-4)Glc
Procedure, shortened: as §1

[3] = biological target: Neu5Ac(a2-3)Gal(b1-3)GalNAc6S
Procedure, shortened: as §1

[4] = biological target: Neu5Ac(a2-3)Gal(b1-3)GlcNAc
Procedure, shortened: as §1

[5] = biological target: Neu5Ac(a2-3)Gal(b1-3)GlcNAc(b1-2)Man
Procedure, shortened: as §1

[6] = biological target: Neu5Ac(a2-3)Gal(b1-3)GlcNAc(b1-2)Man(a1-3)[GlcNAc(b1-4)][Neu5Ac(a2-3)Gal(b1-3)GlcNAc(b1-2)Man(a1-6)]Man(b1-4)GlcNAc(b1-4)GlcNAc
Procedure, shortened: as §1

[7] = biological target: Neu5Ac(a2-3)Gal(b1-3)GlcNAc(b1-2)Man(a1-3)[Neu5Ac(a2-3)Gal(b1-3)GlcNAc(b1-2)Man(a1-6)]Man(b1-4)GlcNAc(b1-4)GlcNAc
Procedure, shortened: as §1

[8] = biological target: Neu5Ac(a2-3)Gal(b1-3)GlcNAc(b1-2)[Neu5Ac(a2-3)Gal(b1-3)GlcNAc(b1-4)]Man(a1-6)[Neu5Ac(a2-3)Gal(b1-3)GlcNAc(b1-2)Man(a1-3)]Man(b1-4)GlcNAc(b1-4)GlcNAc
Procedure, shortened: as §1

[9] = biological target: Neu5Ac(a2-3)Gal(b1-3)GlcNAc(b1-3)Gal(b1-3)GlcNAc
Procedure, shortened: as §1

[10] = biological target: Neu5Ac(a2-3)Gal(b1-3)GlcNAc(b1-3)Gal(b1-4)GlcNAc
Procedure, shortened: as §1

[11] = biological target: Neu5Ac(a2-3)Gal(b1-3)GlcNAc(b1-3)GalNAc
Procedure, shortened: as §1

[12] = biological target: Neu5Ac(a2-3)Gal(b1-3)GlcNAc(b1-6)GalNAc
Procedure, shortened: as §1

[13] = biological target: Neu5Ac(a2-3)Gal(b1-3)GlcNAc6S
Procedure, shortened: as §1

[14] = biological target: Neu5Ac(a2-3)Gal(b1-3)[Fuc(a1-4)]GlcNAc
Procedure, shortened: as §1

[15] = biological target: Neu5Ac(a2-3)Gal(b1-3)[Fuc(a1-4)]GlcNAc(b1-3)Gal(b1-3)[Fuc(a1-4)]GlcNAc
Procedure, shortened: as §1

[16] = biological target: Neu5Ac(a2-3)Gal(b1-3)[Fuc(a1-4)]GlcNAc(b1-3)Gal(b1-4)[Fuc(a1-3)]GlcNAc
Procedure, shortened: as §1

[17] = biological target: Neu5Ac(a2-3)Gal(b1-3)[GlcNAc(b1-6)]GalNAc
Procedure, shortened: as §1

[18] = biological target: Neu5Ac(a2-3)Gal(b1-3)[Neu5Ac(a2-3)Gal(b1-4)]GlcNAc
Procedure, shortened: as §1

[19] = biological target: Neu5Ac(a2-3)Gal(b1-3)[Neu5Ac(a2-6)]GalNAc
Procedure, shortened: as §1

[20] = biological target: Neu5Ac(a2-3)Gal(b1-3)[Neu5Ac(a2-6)]GlcNAc(b1-3)[Fuc(a1-3)[Gal(b1-4)]GlcNAc(b1-6)]Gal(b1-4)Glc
Procedure, shortened: as §1

[21] = biological target: Neu5Ac(a2-3)Gal(b1-3)]Neu5Ac(a2-3)Gal(b1-4)]GlcNAc
Procedure, shortened: as §1

Neu5Ac(a2-3)Gal(b1-4)Glc = biological target: Neu5Ac(a2-3)Gal(b1-4)Glc
Procedure, shortened: as §1

[22] = biological target: Neu5Ac(a2-3)Gal(b1-4)GlcNAc
Procedure, shortened: as §1

[23] = biological target: Neu5Ac(a2-3)Gal(b1-4)GlcNAc(b1-2)Man
Procedure, shortened: as §1

[24] = biological target: Neu5Ac(a2-3)Gal(b1-4)GlcNAc(b1-2)Man(a1-3)[GlcNAc(b1-2)Man(b1-4)GlcNAc(b1-2)Man(a1-6)]Man(b1-4)GlcNAc(b1-4)GlcNAc
Procedure, shortened: as §1

[25] = biological target: Neu5Ac(a2-3)Gal(b1-4)GlcNAc(b1-2)Man(a1-3)[GlcNAc(b1-4)][Neu5Ac(a2-3)Gal(b1-4)GlcNAc(b1-2)Man(a1-6)]Man(b1-4)GlcNAc(b1-4)GlcNAc
Procedure, shortened: as §1

[26] = biological target: Neu5Ac(a2-3)Gal(b1-4)GlcNAc(b1-2)Man(a1-3)[Neu5Ac(a2-3)Gal(b1-4)GlcNAc(b1-2)Man(a1-6)]Man(b1-4)GlcNAc(b1-4)GlcNAc
Procedure, shortened: as §1

[27] = biological target: Neu5Ac(a2-3)Gal(b1-4)GlcNAc(b1-2)Man(a1-3)[Neu5Ac(a2-3)Gal(b1-4)GlcNAc(b1-2)Man(a1-6)]Man(b1-4)GlcNAc(b1-4)[Fuc(a1-6)]GlcNAc
Procedure, shortened: as §1

[28] = biological target: Neu5Ac(a2-3)Gal(b1-4)GlcNAc(b1-2)Man(a1-3)[Neu5Ac(a2-6)Gal(b1-4)GlcNAc(b1-2)Man(a1-6)]Man(b1-4)GlcNAc(b1-4)GlcNAc
Procedure, shortened: as §1

[29] = biological target: Neu5Ac(a2-3)Gal(b1-4)GlcNAc(b1-2)[Neu5Ac(a2-3)Gal(b1-4)GlcNAc(b1-4)]Man(a1-3)[GlcNAc(b1-4)][Neu5Ac(a2-3)Gal(b1-4)GlcNAc(b1-2)[Neu5Ac(a2-3)Gal(b1-4)GlcNAc(b1-6)]Man(a1-6)]Man(b1-4)GlcNAc(b1-4)GlcNAc
Procedure, shortened: as §1

[30] = biological target: Neu5Ac(a2-3)Gal(b1-4)GlcNAc(b1-2)[Neu5Ac(a2-3)Gal(b1-4)GlcNAc(b1-4)]Man(a1-3)[GlcNAc(b1-4)][Neu5Ac(a2-3)Gal(b1-4)GlcNAc(b1-4)Man(a1-6)]Man(b1-4)GlcNAc(b1-4)GlcNAc
Procedure, shortened: as §1

[31] = biological target: Neu5Ac(a2-3)Gal(b1-4)GlcNAc(b1-2)[Neu5Ac(a2-3)Gal(b1-4)GlcNAc(b1-6)]Man(a1-6)[Neu5Ac(a2-3)Gal(b1-4)GlcNAc(b1-2)Man(a1-3)][GlcNAc(b1-4)]Man(b1-4)GlcNAc(b1-4)GlcNAc
Procedure, shortened: as §1

[32] = biological target: Neu5Ac(a2-3)Gal(b1-4)GlcNAc(b1-3)Gal
Procedure, shortened: as §1

[33] = biological target: Neu5Ac(a2-3)Gal(b1-4)GlcNAc(b1-3)Gal(b1-3)GlcNAc
Procedure, shortened: as §1

[34] = biological target: Neu5Ac(a2-3)Gal(b1-4)GlcNAc(b1-3)Gal(b1-4)GlcNAc
Procedure, shortened: as §1

[35] = biological target: Neu5Ac(a2-3)Gal(b1-4)GlcNAc(b1-3)Gal(b1-4)GlcNAc(b1-2)Man(a1-3)[Neu5Ac(a2-3)Gal(b1-4)GlcNAc(b1-3)Gal(b1-4)GlcNAc(b1-2)Man(a1-6)]Man(b1-4)GlcNAc(b1-4)GlcNAc
Procedure, shortened: as §1

[36] = biological target: Neu5Ac(a2-3)Gal(b1-4)GlcNAc(b1-3)Gal(b1-4)GlcNAc(b1-3)Gal(b1-4)GlcNAc
Procedure, shortened: as §1

[37] = biological target: Neu5Ac(a2-3)Gal(b1-4)GlcNAc(b1-3)Gal(b1-4)GlcNAc(b1-3)Gal(b1-4)GlcNAc(b1-2)Man(a1-3)[Neu5Ac(a2-3)Gal(b1-4)GlcNAc(b1-3)Gal(b1-4)GlcNAc(b1-3)Gal(b1-4)GlcNAc(b1-2)Man(a1-6)]GalNAc
Procedure, shortened: as §1

B1: GST-Gap1 (Streptococcus parasanguinis), A1C3L5 (protein)
chain: MFYFVPSWYNGQRQWYYDTPWWFRVKNRMTFDDSVNQVKMFLQGQEEIGLMILNYQPQLRYFLHKQNIFGIYYWSFFDDIQNITRSYTKIIHLKDLNWPEGCEFLYSPFAVVVRLKGEIFAIVNYAEDGNLHSVSFQKNGKVTKDYIFDDRGFLSSILYYDIDERPLYQDYLNINGVWQVREFLKKENDPTPILMINDFSDQTFSKKYYNGWEELIKERLAIFQNNHVENEDVFVLASDTQHNQLVSSIFKEHRKIYSFFGNRFNLENLGQDRISINDATFLVVDTEKNEELLRKTCENLVFKSIPIVRLSPFDSRLRLGHSQTVKEQIIYFHIDNIELDELYSVIAIILELMTLHLDIELRIVTFRQDFQLDLLKTWIIDFIKTNHFEDLLFKQISEGENEIEDEGEIELSRIAMECFTNENQIIKCLDTARLVIDLGIEPDLYTQIASISAGIPQINRVSSDYVIHQKNGLVISDISKLSSAIEFYFDGLFNWNEALIYAVRKMSDYTSGKILKQWKGMLKKK
- glycan array binding signal (z-score) [1]: 0.006
- glycan array binding signal (z-score) [2]: 0.39
- glycan array binding signal (z-score) [3]: 0.574
- glycan array binding signal (z-score) [4]: 0.358
- glycan array binding signal (z-score) [5]: -1.71
- glycan array binding signal (z-score) [6]: 0.543
- glycan array binding signal (z-score) [7]: 0.586
- glycan array binding signal (z-score) [8]: -0.232
- glycan array binding signal (z-score) [9]: 0.236
- glycan array binding signal (z-score) [10]: -0.384
- glycan array binding signal (z-score) [11]: -0.639
- glycan array binding signal (z-score) [12]: -0.146
- glycan array binding signal (z-score) [13]: -0.022
- glycan array binding signal (z-score) [14]: -0.095
- glycan array binding signal (z-score) [15]: 0.962
- glycan array binding signal (z-score) [16]: 0.401
- glycan array binding signal (z-score) [17]: 0.718
- glycan array binding signal (z-score) [18]: -0.488
- glycan array binding signal (z-score) [19]: -0.12
- glycan array binding signal (z-score) [20]: 0.501
- glycan array binding signal (z-score) [21]: 0.058
- glycan array binding signal (z-score) (Neu5Ac(a2-3)Gal(b1-4)Glc): -0.169
- glycan array binding signal (z-score) [22]: -0.392
- glycan array binding signal (z-score) [23]: 1.59
- glycan array binding signal (z-score) [24]: -0.184
- glycan array binding signal (z-score) [25]: 0.815
- glycan array binding signal (z-score) [26]: -1.31
- glycan array binding signal (z-score) [27]: 1.7
- glycan array binding signal (z-score) [28]: -0.955
- glycan array binding signal (z-score) [29]: -0.205
- glycan array binding signal (z-score) [30]: -0.567
- glycan array binding signal (z-score) [31]: -0.37
- glycan array binding signal (z-score) [32]: -0.054
- glycan array binding signal (z-score) [33]: 1.11
- glycan array binding signal (z-score) [34]: -0.007
- glycan array binding signal (z-score) [35]: 2.28
- glycan array binding signal (z-score) [36]: -0.435
- glycan array binding signal (z-score) [37]: 2.15

Reference: the supplement of paper PMC8728848
